These are yes or no findings as the source states them, for the method shown. In cells and extracts the contact can be indirect. Binding can be weak; no strength is given. Tags and fused reporters may be left off the sequences shown.
Biological target: T1, MICU3-FLAG (UniProt Q86XE3)
T1 sequence: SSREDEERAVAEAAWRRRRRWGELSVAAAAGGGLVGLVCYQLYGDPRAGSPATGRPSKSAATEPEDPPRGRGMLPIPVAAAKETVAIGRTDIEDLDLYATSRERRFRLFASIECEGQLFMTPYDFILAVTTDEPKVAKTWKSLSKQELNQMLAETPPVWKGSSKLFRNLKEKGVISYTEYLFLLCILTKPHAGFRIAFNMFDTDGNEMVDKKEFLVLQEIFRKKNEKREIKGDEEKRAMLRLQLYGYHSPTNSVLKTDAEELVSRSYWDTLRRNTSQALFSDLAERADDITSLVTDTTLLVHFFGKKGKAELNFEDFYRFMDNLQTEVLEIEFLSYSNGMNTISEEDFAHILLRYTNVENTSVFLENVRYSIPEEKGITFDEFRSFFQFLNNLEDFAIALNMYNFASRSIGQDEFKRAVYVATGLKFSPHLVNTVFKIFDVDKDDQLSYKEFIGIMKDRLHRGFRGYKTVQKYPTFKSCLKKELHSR
Assay: co-IP; transfected HEK 293T cells (Micu1-/-, Mcu-/- or WT; some treated with ionomycin or BAPTA-AM 12 h before collection); cells treated with 0.2 mM DSP, lysed in Pierce IP lysis buffer; anti-HA, -Myc or -FLAG beads overnight at 4°C; western blot

binding: binds
Substance: MICU1-HA

— PMC12270237
